Assay results from patent US20180185520A1, “COLLAGEN IMAGING COMPOSTIONS” (Collagen Medical, LLC, priority 2015, published 2018).
“And” between values parts separate entries of the source, which are not always exact repeats. Equal values may be shown once.

Test system: infarcted myocardium
Type: in vivo, canine
Settings: Infarct heart tissue, per animal

## CC(C)C[C@H](NC(=O)[C@@H]1CSSC[C@H](NC(=O)[C@H](Cc2c[nH]cn2)NC(=O)[C@H](Cc2c[nH]c3ccccc23)NC(=O)[C@H](CCCCNC(=O)CC[C@H](C(=O)O)N2CCN(CC(=O)O)CCN(CC(=O)O)CCN(CC(=O)O)CC2)NC(=O)CNC(=O)CC[C@H](C(=O)O)N2CCN(CC(=O)O)CCN(CC(=O)O)CCN(CC(=O)O)CC2)C(=O)N[C@@H]([C@@H](C)O)C(=O)N[C@@H]([C@@H](C)O)C(=O)N[C@@H](CCCCNC(=O)CC[C@H](C(=O)O)N2CCN(CC(=O)O)CCN(CC(=O)O)CCN(CC(=O)O)CC2)C(=O)N[C@@H](Cc2ccccc2)C(=O)N2CCC[C@H]2C(=O)N[C@@H](Cc2c[nH]cn2)C(=O)N[C@@H](Cc2c[nH]cn2)C(=O)N[C@@H](Cc2ccc(O)cc2)C(=O)N1)C(=O)N[C@@H](Cc1ccc(O)cc1)C(=O)N[C@@H](Cc1ccc(-c2ccccc2)cc1)C(N)=O [Compound ID No. 1]
  Hyp Avg (hydroxyproline, collagen): 2350.36 µg/g and 5594.81 µg/g
